Measurements from PMC12540712.
No constants are given. Whether binding was seen depends on the method and setting. In cells and extracts the contact can be indirect. Some binding calls cover weakened binding; strength is not graded here. Sequences can lack the tags named with a protein.

Protein sequences, listed by entry. Tags and fused reporters are not part of them. Lines headed by an entry give the natural chain unless they say otherwise; changes in a name come on top.
UniProt P28340: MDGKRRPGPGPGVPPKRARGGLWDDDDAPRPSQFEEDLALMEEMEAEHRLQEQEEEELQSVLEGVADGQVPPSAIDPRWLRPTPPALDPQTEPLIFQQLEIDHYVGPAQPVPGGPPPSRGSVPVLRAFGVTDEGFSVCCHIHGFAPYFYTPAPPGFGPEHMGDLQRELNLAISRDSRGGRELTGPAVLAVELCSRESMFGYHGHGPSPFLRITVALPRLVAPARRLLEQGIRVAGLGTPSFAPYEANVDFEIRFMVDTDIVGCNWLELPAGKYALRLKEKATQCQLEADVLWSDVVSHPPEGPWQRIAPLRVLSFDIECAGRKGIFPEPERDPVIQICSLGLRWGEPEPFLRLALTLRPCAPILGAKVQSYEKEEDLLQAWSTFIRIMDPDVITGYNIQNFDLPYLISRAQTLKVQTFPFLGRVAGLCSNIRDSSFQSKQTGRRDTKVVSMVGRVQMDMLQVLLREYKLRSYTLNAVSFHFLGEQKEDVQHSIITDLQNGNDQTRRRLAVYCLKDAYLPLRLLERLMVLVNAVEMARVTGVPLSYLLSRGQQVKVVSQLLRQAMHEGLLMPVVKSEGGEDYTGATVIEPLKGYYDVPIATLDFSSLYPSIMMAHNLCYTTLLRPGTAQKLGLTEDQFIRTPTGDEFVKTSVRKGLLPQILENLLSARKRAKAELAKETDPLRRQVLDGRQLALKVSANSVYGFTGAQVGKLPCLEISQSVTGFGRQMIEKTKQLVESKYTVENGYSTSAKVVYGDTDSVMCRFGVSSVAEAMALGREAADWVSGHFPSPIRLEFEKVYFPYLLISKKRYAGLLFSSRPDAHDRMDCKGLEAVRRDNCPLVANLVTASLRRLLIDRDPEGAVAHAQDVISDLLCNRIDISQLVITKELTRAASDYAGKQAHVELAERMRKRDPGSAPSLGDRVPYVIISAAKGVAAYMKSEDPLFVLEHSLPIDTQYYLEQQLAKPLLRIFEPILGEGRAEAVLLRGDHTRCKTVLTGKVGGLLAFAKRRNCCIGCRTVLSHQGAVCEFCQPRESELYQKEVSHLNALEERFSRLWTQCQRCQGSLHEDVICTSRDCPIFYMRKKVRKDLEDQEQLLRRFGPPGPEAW

Legend:
Test in all cases: co-IP; FLAG-IP on Anti-FLAG-M2 affinity beads overnight from HEK293T cells expressing FLAG-And-1 or truncated mutants, with or without UVB; 20 mM Tris-HCl pH 8.0, 100 mM NaCl, 1 mM EDTA, 0.5% NP-40, 10 mM NaF
[1] = target: T1, FLAG-And-1 SepB + HMG domain (330-1129) (human) (UniProt O75717)
T1 sequence: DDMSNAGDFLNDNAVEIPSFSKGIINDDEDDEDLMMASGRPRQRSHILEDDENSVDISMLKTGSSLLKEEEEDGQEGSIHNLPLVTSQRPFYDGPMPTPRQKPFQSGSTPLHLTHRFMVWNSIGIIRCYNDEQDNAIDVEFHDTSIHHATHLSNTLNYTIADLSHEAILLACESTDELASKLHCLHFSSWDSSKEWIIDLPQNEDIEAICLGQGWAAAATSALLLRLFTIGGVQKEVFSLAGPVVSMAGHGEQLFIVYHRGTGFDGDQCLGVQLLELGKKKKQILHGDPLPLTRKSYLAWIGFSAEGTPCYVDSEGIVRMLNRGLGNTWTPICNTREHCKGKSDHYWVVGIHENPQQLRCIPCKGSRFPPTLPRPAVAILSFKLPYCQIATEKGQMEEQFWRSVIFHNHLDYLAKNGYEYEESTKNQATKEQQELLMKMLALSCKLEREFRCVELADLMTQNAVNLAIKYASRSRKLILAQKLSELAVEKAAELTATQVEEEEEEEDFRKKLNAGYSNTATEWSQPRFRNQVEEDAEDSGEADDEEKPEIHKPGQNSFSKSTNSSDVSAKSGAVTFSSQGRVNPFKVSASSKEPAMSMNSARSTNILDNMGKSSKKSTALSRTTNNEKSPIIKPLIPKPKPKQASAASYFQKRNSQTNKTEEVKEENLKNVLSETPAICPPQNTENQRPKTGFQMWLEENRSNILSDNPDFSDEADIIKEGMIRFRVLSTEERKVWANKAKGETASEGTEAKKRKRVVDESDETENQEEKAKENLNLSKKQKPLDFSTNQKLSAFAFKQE

[2] = target: T2, FLAG-And-1 SepB domain (330–984) (human) (UniProt O75717)
T2 sequence: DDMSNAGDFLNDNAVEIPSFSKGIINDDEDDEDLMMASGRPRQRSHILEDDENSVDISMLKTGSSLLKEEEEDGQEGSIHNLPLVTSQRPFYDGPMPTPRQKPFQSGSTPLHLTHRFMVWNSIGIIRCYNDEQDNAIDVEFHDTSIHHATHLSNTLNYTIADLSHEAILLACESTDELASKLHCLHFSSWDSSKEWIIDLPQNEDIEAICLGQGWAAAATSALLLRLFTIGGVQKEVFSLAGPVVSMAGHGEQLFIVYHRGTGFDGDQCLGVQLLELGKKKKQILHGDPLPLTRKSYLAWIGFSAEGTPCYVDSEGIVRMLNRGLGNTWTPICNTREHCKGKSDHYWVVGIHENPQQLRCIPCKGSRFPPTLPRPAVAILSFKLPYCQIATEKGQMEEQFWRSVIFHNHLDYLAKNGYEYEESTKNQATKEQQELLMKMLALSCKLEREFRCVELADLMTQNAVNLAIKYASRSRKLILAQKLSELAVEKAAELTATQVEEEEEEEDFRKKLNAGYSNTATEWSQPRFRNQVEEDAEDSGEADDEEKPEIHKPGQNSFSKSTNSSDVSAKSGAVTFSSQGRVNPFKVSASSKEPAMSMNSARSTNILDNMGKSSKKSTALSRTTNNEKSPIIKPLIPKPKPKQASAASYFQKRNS

[3] = target: T3, FLAG-And-1, full-length And-1 (FL, 1–1129) (human) (UniProt O75717)
T3 sequence: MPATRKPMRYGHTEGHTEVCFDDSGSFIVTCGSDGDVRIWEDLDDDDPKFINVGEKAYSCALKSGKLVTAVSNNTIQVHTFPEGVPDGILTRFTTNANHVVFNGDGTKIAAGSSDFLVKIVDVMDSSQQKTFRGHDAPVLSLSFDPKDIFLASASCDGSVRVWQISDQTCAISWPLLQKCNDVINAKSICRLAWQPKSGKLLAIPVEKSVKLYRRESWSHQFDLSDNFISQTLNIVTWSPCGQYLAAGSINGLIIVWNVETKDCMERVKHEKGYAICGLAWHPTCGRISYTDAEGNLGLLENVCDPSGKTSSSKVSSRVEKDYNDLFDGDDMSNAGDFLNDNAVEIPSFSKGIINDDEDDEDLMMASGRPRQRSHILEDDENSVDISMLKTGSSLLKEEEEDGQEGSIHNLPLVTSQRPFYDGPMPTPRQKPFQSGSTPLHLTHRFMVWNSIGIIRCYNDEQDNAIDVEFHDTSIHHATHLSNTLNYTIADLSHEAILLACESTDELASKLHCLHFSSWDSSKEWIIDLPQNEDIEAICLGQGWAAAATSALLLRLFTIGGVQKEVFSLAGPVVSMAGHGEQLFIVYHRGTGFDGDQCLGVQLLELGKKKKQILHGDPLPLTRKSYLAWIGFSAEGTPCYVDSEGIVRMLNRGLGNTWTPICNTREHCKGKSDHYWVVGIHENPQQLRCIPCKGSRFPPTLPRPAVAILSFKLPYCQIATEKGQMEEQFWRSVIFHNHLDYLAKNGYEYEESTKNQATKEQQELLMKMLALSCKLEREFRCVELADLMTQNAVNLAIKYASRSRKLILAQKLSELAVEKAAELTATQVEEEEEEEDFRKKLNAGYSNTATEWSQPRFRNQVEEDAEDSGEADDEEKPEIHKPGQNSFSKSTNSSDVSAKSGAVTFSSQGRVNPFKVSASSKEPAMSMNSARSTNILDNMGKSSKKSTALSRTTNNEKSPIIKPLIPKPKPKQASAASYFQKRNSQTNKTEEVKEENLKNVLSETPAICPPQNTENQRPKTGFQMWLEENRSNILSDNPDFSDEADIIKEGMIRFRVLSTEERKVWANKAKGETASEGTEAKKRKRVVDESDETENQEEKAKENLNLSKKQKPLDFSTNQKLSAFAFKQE

Measured: binding

catalytic subunit of DNA polymerase δ (p125) (from UniProt P28340 1-1107)
binds: all assays above
